No constants are given. Whether binding was seen depends on the method and setting. In cells and extracts the contact can be indirect. Some entries that bind do so weakly or less than the wild type.
Tests used:
IRAP 3CA (mouse) = molecular target: T1, IRAP 3CA (mouse) (UniProt Q8C129); assay: co-IP; IRAP immunoprecipitated with rabbit anti-IRAP bound on Dynabeads Protein G from Jurkat T cell lysates (wt cells, or IRAP ko cells reconstituted with IRAP E465A or IRAP 3CA); lysis in 50 mM Tris, 150 mM NaCl, 1% CHAPS with protease and phosphatase inhibitors; immunoblot
T1 sequence: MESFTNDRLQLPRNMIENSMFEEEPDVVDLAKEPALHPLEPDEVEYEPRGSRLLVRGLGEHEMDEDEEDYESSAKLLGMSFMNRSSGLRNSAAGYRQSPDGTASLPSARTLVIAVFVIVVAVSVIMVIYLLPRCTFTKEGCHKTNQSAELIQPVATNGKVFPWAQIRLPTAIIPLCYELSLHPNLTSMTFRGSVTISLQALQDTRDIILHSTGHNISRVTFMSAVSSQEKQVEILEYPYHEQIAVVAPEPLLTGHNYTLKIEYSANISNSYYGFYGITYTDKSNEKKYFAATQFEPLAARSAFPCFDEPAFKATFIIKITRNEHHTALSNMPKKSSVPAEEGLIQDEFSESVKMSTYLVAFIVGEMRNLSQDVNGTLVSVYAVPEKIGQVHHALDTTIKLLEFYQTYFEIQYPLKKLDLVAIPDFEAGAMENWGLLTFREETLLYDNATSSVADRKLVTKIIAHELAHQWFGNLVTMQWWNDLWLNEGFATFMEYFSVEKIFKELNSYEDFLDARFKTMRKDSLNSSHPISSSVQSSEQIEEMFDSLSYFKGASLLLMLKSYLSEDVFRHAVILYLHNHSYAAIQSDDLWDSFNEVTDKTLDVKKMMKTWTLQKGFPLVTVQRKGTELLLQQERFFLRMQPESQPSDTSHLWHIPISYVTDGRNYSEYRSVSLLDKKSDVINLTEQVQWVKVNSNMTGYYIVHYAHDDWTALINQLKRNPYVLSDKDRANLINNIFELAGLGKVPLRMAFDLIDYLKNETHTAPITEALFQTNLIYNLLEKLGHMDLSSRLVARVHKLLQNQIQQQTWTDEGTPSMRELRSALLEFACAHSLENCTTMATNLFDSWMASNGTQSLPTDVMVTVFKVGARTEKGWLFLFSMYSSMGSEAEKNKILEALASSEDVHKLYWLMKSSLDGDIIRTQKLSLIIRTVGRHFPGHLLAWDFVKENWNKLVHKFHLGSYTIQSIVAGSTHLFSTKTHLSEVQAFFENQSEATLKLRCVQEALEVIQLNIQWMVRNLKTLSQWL

Chains of the proteins cited; added tags and fusions are not shown.
UniProt P06239: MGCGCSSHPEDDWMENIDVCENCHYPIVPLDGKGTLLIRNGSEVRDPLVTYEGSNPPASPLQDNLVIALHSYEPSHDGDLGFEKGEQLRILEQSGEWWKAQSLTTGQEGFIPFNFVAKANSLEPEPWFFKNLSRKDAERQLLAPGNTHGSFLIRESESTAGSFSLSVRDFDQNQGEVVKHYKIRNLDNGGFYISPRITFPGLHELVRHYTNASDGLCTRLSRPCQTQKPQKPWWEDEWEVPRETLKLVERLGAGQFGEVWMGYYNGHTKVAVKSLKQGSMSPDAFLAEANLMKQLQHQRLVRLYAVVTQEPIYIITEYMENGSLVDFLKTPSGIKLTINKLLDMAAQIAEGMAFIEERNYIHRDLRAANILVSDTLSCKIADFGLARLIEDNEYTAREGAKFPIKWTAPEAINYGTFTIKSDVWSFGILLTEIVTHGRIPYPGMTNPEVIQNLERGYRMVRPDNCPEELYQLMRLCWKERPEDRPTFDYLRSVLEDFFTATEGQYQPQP

[1] = molecular target: Insulin Responsive AminoPeptidase (IRAP) (human (endogenous in Jurkat)) (UniProt Q9UIQ6); assay: as above

| binding (IRAP 3CA (mouse)) | binding [1] | Substance |
| --- | --- | --- |
| no binding | binds | T-cell receptor ζ chain (CD3ζ) (from UniProt P20963-1 22-164) |
| – | binds | lymphocyte-specific protein tyrosine kinase (Lck) (from UniProt P06239 1-509) (enzyme) |

Source: PMC7265453
